PubChem BioAssay AID652243, Drosophila RNAi Screening Center – 2013
The deposit covers about 24,000 reagents; shown is an unselected part of those with a known target gene and a result. In the full data, 246 (1%) are marked active. 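Plates not normalised; calls are printed but the firefly/Renilla ratio behind them is not deposited; fold cut for lowering reported inconsistently.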 Raw values vary from plate to plate and are shown uncorrected. A number with no mark means an inactive call. The numbers tell different reagents against one gene apart. Names joined by + are all predicted targets of the reagent. Not stated in the record: the amount of reagent.

Purpose: 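Fly genes required for human androgen receptor driven transcription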 (primary screen)
Cell system: Drosophila S2R+ cells
Reagents: long dsRNA against Drosophila genes
Timing: 72 h (48 h, then 24 h hormone)
Treatment: synthetic androgen R1881 at 10 nM for 24 h
Detection: 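Per-well raw luminescence of the androgen-driven firefly reporter and of the Renilla control, two replicates each, without normalisation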
Reading the numbers: firefly reporter light: higher = more light from androgen-responsive reporter; Renilla control light: higher = more constitutive control signal (cell number, transfection)
Rule for the call: 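Hit when the log firefly-to-Renilla ratio dropped or increased by a fixed fold versus the mean of GFP or LacZ controls across duplicate plates; lowering cut given as 1.5 and as 3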
Meaning of the calls: active = hit: reporter lowered or raised; inactive = no hit

gene	reagent no.	firefly reporter light, replicate 1	firefly reporter light, replicate 2	Renilla control light, replicate 1	Renilla control light, replicate 2
ssp7	1	1.46e6	5.17e5	2.78e6	9.26e5
CG7518	1	63450	41759	4.82e5	5.37e5
CG7518	2	8.91e5	9.93e5	1.67e6	1.47e6
Gmppb	1	53155	49623	4.73e5	2.88e5
Targ1	1	3.43e5	3.49e5	2.75e6	3.17e6
ATPsynD	1	2.41e5	2.46e5	2.02e6	2.20e6
ATPsynD	2	1.07e5	62682	1.33e5	85726
boca	1	3.91e5	4.66e5	1.31e6	1.35e6
ovm + CG31975	1	8.91e5	1.15e6	1.77e6	1.59e6
heca	1	5.88e5	9.46e5	1.05e6	1.50e6
heca	2	3.97e5	3.97e5	7.15e5	5.42e5
grau	1	1.29e5	1.11e5	1.30e6	8.67e5
grau	2	6.19e5	5.18e5	7.87e5	7.87e5
CG42726 + CG42727	1	25146	25109	3.97e5	4.19e5
CG42726 + CG42727	2	2.60e5	2.08e5	6.93e5	6.27e5
CG13404	1	6.66e5	5.43e5	3.16e6	3.74e6
Lcp65Ag3 + Lcp65Ag2 + Lcp65Ag1	1	1.90e5	2.38e5	2.50e6	2.79e6
Lcp65Ag3 + Lcp65Ag2 + Lcp65Ag1	2	2.27e5	2.85e5	2.61e6	3.90e6
CG31157	1	4.58e5	4.77e5	2.41e6	2.77e6
CG31157	2	4.24e5	4.73e5	1.44e6	1.07e6
CG9752	1	7.95e5	7.50e5	1.71e6	1.86e6
CG17739	1	1.13e6	1.21e6	1.98e6	1.87e6
CG17739	2	2.32e5	2.20e5	5.75e5	5.92e5
nclb	1	1.24e5	1.54e5	1.23e6	1.06e6
Obp19b	1	3.65e5	2.03e5	1.26e6	5.28e5
Obp19b	2	6.30e5	6.40e5	1.64e6	1.58e6
CG43345 + CG43346	1	9.34e5	1.09e6	2.05e6	2.04e6
mRpL28	1	1.82e5	1.15e5	2.35e6	9.29e5
CG12003	1	1.47e5	1.40e5	1.96e6	1.45e6
CG16782	1	2.00e5	1.80e5	3.17e6	2.84e6
TwdlK	1	6.37e5	1.09e6	1.14e6	1.25e6
CG10257	1	1.39e5	1.11e5	1.65e6	1.65e6
RNASEK	1	8.62e5	6.75e5	3.21e6	2.67e6
PGRP-LF	1	7.95e5	8.51e5	7.98e5	1.12e6
Hmu	1	80213	94963	1.59e6	1.33e6
Hmu	2	5.19e5	7.30e5	5.33e5	7.05e5
CG6650	1	9.78e5	7.89e5	1.48e6	9.80e5
enok	1	1.15e6	3.69e5	1.47e6	9.08e5
Ir7d	1	3.60e5	3.43e5	2.48e6	2.95e6
rasp	1	98950	92242	1.18e6	1.47e6
